Test results published in patent publication US10208029B2, “Photoacid compositions having extended lifetime of proton dissociation state” (University of Central Florida Research Foundation, Inc., priority 2013, dated 2019).

Assay: Photo-catalysed Fisher esterification of acetic acid in ethanol, ethyl acetate analysed by HPLC
Settings: for yield of ethyl acetate: acetic acid […], photoacid 3.1 mM in ethanol, irradiated at 419 and 570 nm

CC1(C)C(/C=C/c2ccccc2O)=[N+](CCCS(=O)(=O)[O-])c2ccccc21 [photoacid 1]
yield of ethyl acetate (1 hr): 33%
yield of ethyl acetate (2 hr): 50%
yield of ethyl acetate (3 hr): 66%
esterification reaction in the dark (mixture kept in the dark): No reaction was detected
